Measured values taken from paper doi:10.1101/2024.02.21.581502.
These are yes or no findings as the source states them, for the method shown. For some assays here: Binding can be weak; no strength is given. For some assays here: Where a sequence is shown, tags or fusion partners need not be part of it. For some assays here: In cells and extracts the contact can be indirect. Each block holds one molecule with its values, some of them ahead of it.

Key:
[1] = biological target: T1, SlPsbS-3xFLAG (tomato (Solanum lycopersicum)) (UniProt P54773); test: co-IP
T1 sequence: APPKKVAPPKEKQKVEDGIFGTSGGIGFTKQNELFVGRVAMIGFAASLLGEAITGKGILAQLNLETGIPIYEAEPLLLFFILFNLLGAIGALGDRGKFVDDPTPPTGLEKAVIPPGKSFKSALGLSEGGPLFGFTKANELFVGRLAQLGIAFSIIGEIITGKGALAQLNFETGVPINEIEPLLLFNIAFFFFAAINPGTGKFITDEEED

[2] = biological target: T2, SlPsbS (tomato (Solanum lycopersicum)) (UniProt P54773); test: two-hybrid
T2 sequence: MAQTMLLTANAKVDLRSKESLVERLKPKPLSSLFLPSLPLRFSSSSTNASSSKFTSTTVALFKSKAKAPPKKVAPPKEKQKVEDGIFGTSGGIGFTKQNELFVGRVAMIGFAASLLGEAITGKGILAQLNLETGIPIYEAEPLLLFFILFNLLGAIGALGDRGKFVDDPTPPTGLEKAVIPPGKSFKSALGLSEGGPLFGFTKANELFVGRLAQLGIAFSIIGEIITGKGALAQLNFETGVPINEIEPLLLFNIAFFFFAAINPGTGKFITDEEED

[3] = biological target: SlCV-GST (tomato (Solanum lycopersicum)); test: pull-down
[4] = biological target: SlCSN5A-GST (tomato (Solanum lycopersicum)); test: pull-down
[5] = biological target: SlCSN5A-nLUC (tomato (Solanum lycopersicum)); test: split reporter
[6] = biological target: SlCSN5A-nYFP (tomato (Solanum lycopersicum)); test: split reporter
[7] = biological target: MPN domain of SlCSN5A (tomato (Solanum lycopersicum)); test: two-hybrid
[8] = biological target: SlCSN5A fused to the GAL4 DNA binding domain (tomato (Solanum lycopersicum)); test: two-hybrid
[9] = biological target: ICA domain of SlCSN5A (tomato (Solanum lycopersicum)); test: two-hybrid
[10] = biological target: SlCV fused to the GAL4 DNA binding domain (tomato (Solanum lycopersicum)); test: two-hybrid

binding [1]: binds
Molecule: SlCV-GFP (tomato (Solanum lycopersicum))

binding [2]: binds
Molecule: COP9 signalosome subunit 5A (SlCSN5A) (tomato (Solanum lycopersicum))

binding [1]: binds
Molecule: SlCSN5A-GFP (tomato (Solanum lycopersicum))

binding [3]: binds
binding [4]: binds
B1: SlPsbS-HIS (protein, UniProt P54773 68-276)
chain: APPKKVAPPKEKQKVEDGIFGTSGGIGFTKQNELFVGRVAMIGFAASLLGEAITGKGILAQLNLETGIPIYEAEPLLLFFILFNLLGAIGALGDRGKFVDDPTPPTGLEKAVIPPGKSFKSALGLSEGGPLFGFTKANELFVGRLAQLGIAFSIIGEIITGKGALAQLNFETGVPINEIEPLLLFNIAFFFFAAINPGTGKFITDEEED

binding [5]: binds
B2: cLUC-SlPsbS (protein, UniProt P54773 68-276)
chain: APPKKVAPPKEKQKVEDGIFGTSGGIGFTKQNELFVGRVAMIGFAASLLGEAITGKGILAQLNLETGIPIYEAEPLLLFFILFNLLGAIGALGDRGKFVDDPTPPTGLEKAVIPPGKSFKSALGLSEGGPLFGFTKANELFVGRLAQLGIAFSIIGEIITGKGALAQLNFETGVPINEIEPLLLFNIAFFFFAAINPGTGKFITDEEED

binding [6]: binds
B3: cYFP-SlPsbS (protein, UniProt P54773 68-276)
chain: APPKKVAPPKEKQKVEDGIFGTSGGIGFTKQNELFVGRVAMIGFAASLLGEAITGKGILAQLNLETGIPIYEAEPLLLFFILFNLLGAIGALGDRGKFVDDPTPPTGLEKAVIPPGKSFKSALGLSEGGPLFGFTKANELFVGRLAQLGIAFSIIGEIITGKGALAQLNFETGVPINEIEPLLLFNIAFFFFAAINPGTGKFITDEEED

binding [7]: binds
binding [8]: binds
binding [9]: no binding
binding [10]: binds
B4: SlPsbS fused to the GAL4 activation domain (protein, UniProt P54773 1-276)
chain: MAQTMLLTANAKVDLRSKESLVERLKPKPLSSLFLPSLPLRFSSSSTNASSSKFTSTTVALFKSKAKAPPKKVAPPKEKQKVEDGIFGTSGGIGFTKQNELFVGRVAMIGFAASLLGEAITGKGILAQLNLETGIPIYEAEPLLLFFILFNLLGAIGALGDRGKFVDDPTPPTGLEKAVIPPGKSFKSALGLSEGGPLFGFTKANELFVGRLAQLGIAFSIIGEIITGKGALAQLNFETGVPINEIEPLLLFNIAFFFFAAINPGTGKFITDEEED
